PubChem BioAssay AID652243 | Drosophila RNAi Screening Center | 2013

Purpose: 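Knock-downs that decrease or increase androgen receptor reporter signal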 (primary screen)
Cell system: Drosophila S2R+ cells
Knock-down reagent: long dsRNA against Drosophila genes
Timing: 72 h (48 h, then 24 h hormone)
Conditions: synthetic androgen R1881 at 10 nM for 24 h
Measured: 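Firefly light from an androgen-responsive reporter and Renilla control light per well, raw and unnormalised, for each of two replicates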
Reading the numbers: firefly reporter light: higher = more light from androgen-responsive reporter; Renilla control light: higher = more constitutive control signal (cell number, transfection)
Active means: 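Across duplicate plates, a knock-down whose log firefly/Renilla ratio shifted a set fold down or up from the GFP/LacZ control mean was a hit; the downward cut appears as both 1.5 and 3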
Meaning of the calls: active = hit: reporter lowered or raised; inactive = no hit
The deposit covers about 24,000 reagents; this is an unselected part of those that have a named target and a result. Of all reagents, 246 (1%) were called active. 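Plates not normalised; calls are printed but the firefly/Renilla ratio behind them is not deposited; fold cut for lowering reported inconsistently.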 Raw values are not corrected between plates. Unmarked entries are inactive. Names joined by + are all predicted targets of the reagent. Not given: the amount of reagent.

gene knocked down	dsRNA	firefly reporter light, replicate 1	firefly reporter light, replicate 2	Renilla control light, replicate 1	Renilla control light, replicate 2
CG31274 + MESK4	DRSC13202	3.09e5	2.46e5	5.80e5	6.18e5
chas	DRSC19508	6.47e5	5.64e5	3.58e6	2.60e6
chas	DRSC19509	5.19e5	4.58e5	3.56e6	3.67e6
chas	DRSC29130	9.32e5	9.71e5	1.32e6	1.15e6
CR30374	DRSC05080	2.00e5	1.75e5	4.24e5	2.91e5
CG11134	DRSC19384	3.40e5	4.55e5	2.55e6	3.44e6
alpha-Man-IIb	DRSC16898	91980	88650	6.69e5	5.77e5
alpha-Man-IIb	DRSC24186	1.05e6	1.13e6	1.09e6	9.04e5
alpha-Man-IIb	DRSC38984	1.01e6	7.50e5	2.10e6	1.75e6
CG14655	DRSC12241	5.00e5	6.18e5	3.23e6	4.47e6
CG14655	DRSC29900	4.56e5	3.88e5	8.50e5	9.50e5
Not11	DRSC04204	2.12e5	2.41e5	1.80e6	1.87e6
Grip128	DRSC20167	1.30e5	1.59e5	6.85e5	7.67e5
Jon99Ci	DRSC16860	1.66e5	1.53e5	2.18e6	2.31e6
Jon99Ci	DRSC28041	4.75e5	5.33e5	1.70e6	1.33e6
CG8910	DRSC07414	64436	67017	1.21e6	1.21e6
CG8910	DRSC28591	5.47e5	5.22e5	1.29e6	1.64e6
CG9673	DRSC20202	1.74e5	3.86e5	2.18e6	2.98e6
LysD + LysC (retired record)	DRSC08674	66176	84173	9.35e5	6.73e5
LysD + LysC (retired record)	DRSC22743	4.23e5	5.10e5	1.29e6	1.17e6
ng2	DRSC18803	3.39e5	3.85e5	2.23e6	2.27e6
Polr1D + DCTN6-p27	DRSC02094	1.85e5	1.83e5	1.41e6	1.55e6
SdhBL	DRSC20039	2.82e5	1.18e5	1.20e6	6.11e5
Elys	DRSC19571	46088	29496	2.96e5	3.05e5
SLC5A11	DRSC03088	7.00e5	1.01e6	1.14e6	1.23e6
brun	DRSC02706	9.22e5	1.08e6	1.09e6	1.21e6
PMCA	DRSC17114	7.64e5	5.45e5	1.02e6	3.07e5
PMCA	DRSC17154	76077	90756	6.19e5	4.07e5
PMCA	DRSC38802	4.01e5 (active)	3.98e5	2.07e6	1.78e6
alien + CG17906	DRSC02641	2.32e5	2.22e5	1.83e6	1.72e6
DIP-epsilon	DRSC00932	7.92e5	1.07e6	2.26e6	2.32e6
DIP-epsilon	DRSC02313	3.32e5	3.34e5	2.04e6	1.65e6
DIP-epsilon	DRSC26835	4.62e5	3.22e5	1.09e6	7.97e5
CG7763	DRSC07043	2.53e5	1.53e5	1.57e6	1.33e6
CG4020	DRSC18337	2.47e5	4.76e5	3.16e6	3.32e6
mof	DRSC18795	1.80e5	2.48e5	1.44e6	1.06e6
mof	DRSC24125	5.80e5	6.27e5	3.23e5	3.17e5
AstC-R2	DRSC23467	8.48e5	1.04e6	1.54e6	1.36e6
CG8079	DRSC07070	8.53e5	8.39e5	2.09e6	2.37e6
CG8079	DRSC07071	60815	78956	1.18e6	1.18e6
mEFG1	DRSC02758	2.04e5	1.41e5	1.23e6	9.98e5
mat	DRSC08376	1.83e5	2.05e5	3.05e6	2.63e6
mat	DRSC22841	5.22e5	1.07e6	9.50e5	1.45e6
mat	DRSC27210	2.52e5	2.16e5	6.44e5	4.33e5
CG32266	DRSC08062	1.55e5	1.78e5	4.30e5	4.56e5
CG32266	DRSC27644	3.65e5	2.54e5	5.85e5	8.02e5
Ulp1	DRSC19339	1.48e5	1.07e5	1.03e6	8.81e5
CG14377	DRSC14837	86312	1.65e5	1.72e6	2.00e6
CG14377	DRSC26342	2.89e5	3.50e5	9.13e5	9.80e5
CG10799	DRSC06002	2.25e5	1.12e5	1.27e6	7.76e5
CG43689	DRSC18046	2.46e5	2.75e5	2.40e6	2.20e6
CG43689	DRSC22467	1.36e5	2.88e5	5.75e5	6.30e5
CG43689	DRSC23070	5.71e5	6.18e5	1.42e6	1.54e6
CG43689	DRSC25097	1.05e6	7.96e5	7.74e5	6.72e5
CG43689	DRSC26563	4.00e5	3.15e5	6.08e5	6.76e5
GstD3	DRSC15571	1.07e5	1.39e5	2.59e6	2.54e6
GstD3	DRSC24755	4.12e5	4.24e5	5.31e5	5.35e5
Mccc1	DRSC15417	1.16e5	1.06e5	1.02e6	8.06e5
Mccc1	DRSC27491	3.40e5	2.76e5	5.09e5	3.82e5
